PubChem BioAssay AID1259308, NCATS | 2017

- Assay: 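Candidate targets for better recombinant protein yield in mammalian cells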 (primary screen)
- System: human HEK293 embryonic kidney cells stably expressing firefly luciferase (HEK-CMV-Luc2-Hygro)
- Knock-down reagent: single siRNA against human genes, 0.8 pmol siRNA per well
- Time to read-out: 72 h
- Measured: 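Luciferase light (ONE-Glo) measured on one replicate plate set and viability (CellTiter-Glo) on the other, scaled to a negative control siRNA, with robust z-scores and luciferase per cell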
- Direction: total luciferase, z-score: higher = more reporter protein produced
- Call rule: 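An siRNA counts as active if its total luciferase robust z-score exceeds 3; genes with two or more such siRNAs out of three were retested with fresh siRNAs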
- Calls: active = raised luciferase; inactive = no rise
The whole screen tested about 59,000 reagents; shown is a part drawn at random. About 1,510 of all reagents (2.6%) count as active. 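Calls use total luciferase alone and ignore viability, so some active siRNAs may act by altering cell number.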 Entries without a mark were called inactive. The numbers tell different reagents against one gene apart. Not all columns of the deposit are shown.

{"gene knocked down": "TMA7", "siRNA no.": 1, "total luciferase, z-score": 0.709}
{"gene knocked down": "TMA7", "siRNA no.": 2, "total luciferase, z-score": -1.09}
{"gene knocked down": "TMA7", "siRNA no.": 3, "total luciferase, z-score": -0.881}
{"gene knocked down": "SIN3B", "siRNA no.": 1, "total luciferase, z-score": -0.731}
{"gene knocked down": "SIN3B", "siRNA no.": 2, "total luciferase, z-score": -1.07}
{"gene knocked down": "SIN3B", "siRNA no.": 3, "total luciferase, z-score": -0.562}
{"gene knocked down": "ABHD4", "siRNA no.": 1, "total luciferase, z-score": 0.988}
{"gene knocked down": "ABHD4", "siRNA no.": 2, "total luciferase, z-score": -0.334}
{"gene knocked down": "ABHD4", "siRNA no.": 3, "total luciferase, z-score": 0.11}
{"gene knocked down": "FBXO34", "siRNA no.": 1, "total luciferase, z-score": -1.69}
{"gene knocked down": "FBXO34", "siRNA no.": 2, "total luciferase, z-score": 0.223}
{"gene knocked down": "FBXO34", "siRNA no.": 3, "total luciferase, z-score": -0.4}
{"gene knocked down": "SOCS5", "siRNA no.": 1, "total luciferase, z-score": -0.608}
{"gene knocked down": "SOCS5", "siRNA no.": 2, "total luciferase, z-score": 0.144}
{"gene knocked down": "SOCS5", "siRNA no.": 3, "total luciferase, z-score": 0.418}
{"gene knocked down": "CYP46A1", "siRNA no.": 1, "total luciferase, z-score": -1.42}
{"gene knocked down": "CYP46A1", "siRNA no.": 2, "total luciferase, z-score": -1.1}
{"gene knocked down": "CYP46A1", "siRNA no.": 3, "total luciferase, z-score": 0.625}
{"gene knocked down": "SLC9B2", "siRNA no.": 1, "total luciferase, z-score": -1.51}
{"gene knocked down": "SLC9B2", "siRNA no.": 2, "total luciferase, z-score": 1.16}
{"gene knocked down": "SLC9B2", "siRNA no.": 3, "total luciferase, z-score": -0.713}
{"gene knocked down": "GRHL2", "siRNA no.": 1, "total luciferase, z-score": -1.46}
{"gene knocked down": "GRHL2", "siRNA no.": 2, "total luciferase, z-score": 0.215}
{"gene knocked down": "GRHL2", "siRNA no.": 3, "total luciferase, z-score": 1.42}

Taken from above:
Result of SIN3B #1 under “total luciferase, z-score”: -0.731
Entry for ABHD4 #3 under “total luciferase, z-score”: 0.11
Entry of SIN3B #2 under “total luciferase, z-score”: -1.07
Result of CYP46A1 #2 under “total luciferase, z-score”: -1.1
For “total luciferase, z-score”, SLC9B2 #1 reads -1.51

The listing continues:
{"gene knocked down": "WHAMM", "siRNA no.": 1, "total luciferase, z-score": -0.29}
{"gene knocked down": "WHAMM", "siRNA no.": 2, "total luciferase, z-score": 0.347}
{"gene knocked down": "WHAMM", "siRNA no.": 3, "total luciferase, z-score": 0.47}
{"gene knocked down": "SDHD", "siRNA no.": 1, "total luciferase, z-score": -1.88}
{"gene knocked down": "SDHD", "siRNA no.": 2, "total luciferase, z-score": -0.184}
{"gene knocked down": "SDHD", "siRNA no.": 3, "total luciferase, z-score": -0.388}
{"gene knocked down": "RAB5B", "siRNA no.": 1, "total luciferase, z-score": 1.22}
{"gene knocked down": "RAB5B", "siRNA no.": 2, "total luciferase, z-score": 1.24}
{"gene knocked down": "RAB5B", "siRNA no.": 3, "total luciferase, z-score": -0.188}
{"gene knocked down": "CYP26B1", "siRNA no.": 1, "total luciferase, z-score": 0.619}
{"gene knocked down": "CYP26B1", "siRNA no.": 2, "total luciferase, z-score": 2.17}
{"gene knocked down": "CYP26B1", "siRNA no.": 3, "total luciferase, z-score": 0.212}
{"gene knocked down": "PFKFB1", "siRNA no.": 1, "total luciferase, z-score": -0.161}
{"gene knocked down": "PFKFB1", "siRNA no.": 2, "total luciferase, z-score": -1.31}
{"gene knocked down": "PFKFB1", "siRNA no.": 3, "total luciferase, z-score": -2.05}
{"gene knocked down": "SPAG16", "siRNA no.": 1, "total luciferase, z-score": -1.07}
{"gene knocked down": "SPAG16", "siRNA no.": 2, "total luciferase, z-score": -1.41}
{"gene knocked down": "SPAG16", "siRNA no.": 3, "total luciferase, z-score": -0.12}
